Data on one substance can be found in PMC8050384.

Amino acid sequences for entries named in this document (tags omitted). Residues count along the entry.
UniProt P06804: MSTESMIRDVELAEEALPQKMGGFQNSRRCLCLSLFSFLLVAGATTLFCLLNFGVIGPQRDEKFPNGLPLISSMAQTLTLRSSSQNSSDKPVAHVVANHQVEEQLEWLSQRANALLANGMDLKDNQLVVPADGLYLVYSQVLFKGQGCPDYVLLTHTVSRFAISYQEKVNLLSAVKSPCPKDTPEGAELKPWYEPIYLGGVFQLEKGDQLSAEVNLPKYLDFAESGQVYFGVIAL
UniProt P20333, residues 23-257: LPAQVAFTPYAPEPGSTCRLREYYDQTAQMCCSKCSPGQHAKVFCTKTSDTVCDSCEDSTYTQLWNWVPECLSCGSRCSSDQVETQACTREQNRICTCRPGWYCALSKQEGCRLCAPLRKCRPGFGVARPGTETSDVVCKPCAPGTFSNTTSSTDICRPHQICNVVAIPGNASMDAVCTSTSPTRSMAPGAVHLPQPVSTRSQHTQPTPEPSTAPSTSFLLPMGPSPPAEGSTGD

Results are given in words; binding and its absence hold for the method and conditions named. Some binding calls cover weakened binding; strength is not graded here.

The target in the experiment is transmembrane tumor necrosis factor (tmTNF), wild type, on bone-marrow-derived macrophages of WT mice (mouse (endogenous in BMDMs)) (UniProt P06804). Nature of the experiment: flow cytometry on cells; imaging cytometry (ISX); non-polarized BMDMs stimulated with LPS (50 ng/mL) 30 min, then stained with ETA-dyelight488 in presence of Fc blocker for 20 min at 4° (0 min) or 37°C (20 min); internalization and modulation scores; only the binder purified. (A flow cytometer gives signals particle by particle.)

Take “etanercept, a soluble form of TNFR2 coupled to human Fc domain (from UniProt P20333 23-257) (Fc fusion)”: the binding entry is “binds”.
